Measured values reported in paper PMC3715429.
No constants are given. Whether binding was seen depends on the method and setting. In cells and extracts the contact can be indirect. Some results given as binding are weak or reduced against the parent protein; the word gives no strength.

Sequences of proteins named here, by UniProt entry; tags and fusion partners are left off. Residues count along the entry.
UniProt P29317, residues 24-976: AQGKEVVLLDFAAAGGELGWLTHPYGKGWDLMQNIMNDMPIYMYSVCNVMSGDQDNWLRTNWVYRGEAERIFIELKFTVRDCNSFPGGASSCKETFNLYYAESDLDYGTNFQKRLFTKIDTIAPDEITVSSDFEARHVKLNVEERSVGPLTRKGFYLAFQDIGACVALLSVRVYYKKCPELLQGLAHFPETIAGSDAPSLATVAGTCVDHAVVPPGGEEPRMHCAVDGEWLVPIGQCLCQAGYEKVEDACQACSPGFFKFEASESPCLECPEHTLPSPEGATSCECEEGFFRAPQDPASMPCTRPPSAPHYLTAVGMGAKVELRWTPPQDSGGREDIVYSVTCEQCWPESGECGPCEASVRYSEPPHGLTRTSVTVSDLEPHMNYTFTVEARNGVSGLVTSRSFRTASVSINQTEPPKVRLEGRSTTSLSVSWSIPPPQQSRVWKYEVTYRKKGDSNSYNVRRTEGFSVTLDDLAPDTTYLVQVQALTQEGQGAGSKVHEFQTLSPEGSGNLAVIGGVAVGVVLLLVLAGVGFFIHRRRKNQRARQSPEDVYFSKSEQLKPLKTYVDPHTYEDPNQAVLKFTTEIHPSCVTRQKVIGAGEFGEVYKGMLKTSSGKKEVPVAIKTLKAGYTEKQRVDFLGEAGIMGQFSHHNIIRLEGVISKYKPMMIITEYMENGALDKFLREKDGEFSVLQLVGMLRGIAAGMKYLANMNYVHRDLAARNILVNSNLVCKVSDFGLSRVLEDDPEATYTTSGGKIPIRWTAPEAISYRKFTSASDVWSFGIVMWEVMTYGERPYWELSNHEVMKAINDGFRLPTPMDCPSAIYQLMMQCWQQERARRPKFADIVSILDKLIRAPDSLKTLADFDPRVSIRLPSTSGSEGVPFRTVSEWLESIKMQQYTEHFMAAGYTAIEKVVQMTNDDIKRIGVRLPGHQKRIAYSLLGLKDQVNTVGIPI
UniProt Q05397: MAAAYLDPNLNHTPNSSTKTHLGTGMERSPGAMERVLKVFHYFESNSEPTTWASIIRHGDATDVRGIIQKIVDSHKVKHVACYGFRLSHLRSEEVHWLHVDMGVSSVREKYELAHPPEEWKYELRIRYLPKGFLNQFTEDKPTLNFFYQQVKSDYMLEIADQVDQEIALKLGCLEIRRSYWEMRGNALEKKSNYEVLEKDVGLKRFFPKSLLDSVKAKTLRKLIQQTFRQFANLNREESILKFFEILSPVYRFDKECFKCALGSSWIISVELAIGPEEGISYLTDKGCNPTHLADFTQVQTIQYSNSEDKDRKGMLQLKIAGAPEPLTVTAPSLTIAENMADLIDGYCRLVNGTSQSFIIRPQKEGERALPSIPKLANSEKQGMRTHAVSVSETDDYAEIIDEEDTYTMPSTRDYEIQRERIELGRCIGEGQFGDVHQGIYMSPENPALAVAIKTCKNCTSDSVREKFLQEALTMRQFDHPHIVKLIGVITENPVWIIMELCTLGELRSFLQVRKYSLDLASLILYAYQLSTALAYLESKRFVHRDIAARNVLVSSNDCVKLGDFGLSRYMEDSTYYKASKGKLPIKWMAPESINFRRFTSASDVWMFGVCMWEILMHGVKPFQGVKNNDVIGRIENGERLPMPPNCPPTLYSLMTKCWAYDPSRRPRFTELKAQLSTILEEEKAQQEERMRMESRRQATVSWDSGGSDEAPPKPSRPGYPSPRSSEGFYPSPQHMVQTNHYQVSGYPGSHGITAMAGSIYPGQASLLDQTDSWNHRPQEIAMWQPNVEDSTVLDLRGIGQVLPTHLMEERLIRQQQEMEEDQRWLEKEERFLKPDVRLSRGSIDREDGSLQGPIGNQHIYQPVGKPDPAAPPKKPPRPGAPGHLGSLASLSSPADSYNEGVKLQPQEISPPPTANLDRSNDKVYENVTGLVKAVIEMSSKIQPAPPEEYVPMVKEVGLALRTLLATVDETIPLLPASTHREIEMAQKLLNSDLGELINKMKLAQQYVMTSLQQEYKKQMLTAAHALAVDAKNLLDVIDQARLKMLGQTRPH

Molecular target: EphrinA2 (EphA2) receptor tyrosine kinase (human (endogenous in HFF)) (UniProt P29317)
Experiment: co-IP; lysates of serum-starved HFF cells, mock or KSHV infected (5, 10, 30 min); IP with anti-EphA2 antibody, Western blot for c-Cbl, clathrin heavy chain, AP2, Epsin15, FAK, Src, PI3-K; also in untransfected and control siRNA cells (5 min p.i.); heparin-pretreated KSHV as specificity control

binding: binds
Substance: FAK (from UniProt Q05397 1-1052) (enzyme)
